# Measured values as given in patent publication US7175993B2 (Saladax Biomedical, Inc., priority 2004, dated 2007).
# Some of these results come from one statement about several compounds together.
# Columns and labels:
# [1] = system: taxol polyclonal antibodies; test: Indirect competitive microtiter plate immunoassay (ELISA), polyclonal antibodies to taxol (pool of antisera); format: binding, mice; details: polyclonal antibody pool, listed as baccatin III
# Experimental: The assay was performed by incubating 50 μL of the analytes to be measured with 50 μL of antibody (produced in example 4) diluted to a titer determined in example 8a. […] Following this incubation the wells of the plate were washed three times with 0.02 M TRIS, 0.9% NaCl, 0.5% Tween-80 and 0.001% Thimerosal, pH 7.8 to remove any material that was not bound. […] To develop a measurable color in the wells, washing was followed by the addition of 100 μL of TMB (TMB Liquid Substrate, Sigma), a substrate for HRP, to develop color in a 10 minute incubation with shaking at room temperature. Following the incubation for color development, 50 μL of stop solution (1.5% sodium fluoride in di H2O) was added to each well to stop the color development and after 10 seconds of shaking the absorbance was determined at 650 nm (Molecular Devices Plate Reader). The amount of antibody in a well was proportional to the absorbance measured and inversely proportional to the amount of taxol in the sample. The absorbance of the color in the wells containing analyte is compared to that with no analyte and a standard curve is generated. […] The cross-reactivity with 6-α-hydroxypaclitaxel was less than 60%. […]
# The assay was performed by incubating 50 μL of the analytes to be measured with 50 μL of antibody (produced in example 4) diluted to a titer determined in example 8a. […]
# [2] = system: taxol monoclonal antibodies; test: Indirect competitive microtiter plate immunoassay (ELISA), selected monoclonal antibodies; format: binding, mice
smiles,measurement,setting,value
CC(=O)O[C@H]1C(=O)[C@@]2(C)[C@H]([C@H](OC(=O)c3ccccc3)[C@]3(O)C[C@H](O)C(C)=C1C3(C)C)[C@]1(OC(C)=O)CO[C@@H]1C[C@@H]2O [Baccatin III],Cross-reactivity relative to taxol,[1]; microtiter plate sensitized with Taxol Derivative 5 (example 9a),less than 10%
same,Cross-reactivity relative to taxol,[1]; microtiter plate sensitized with Taxol Derivative 8 (example 9b),less than 2%
same,percent cross-reactivities relative to taxol,"[2]; selected monoclonal antibodies, plate sensitized with Taxol Derivative 8 (example 9b)",less than 9%
same,percent cross-reactivities relative to taxol,"[2]; two monoclonal antibodies, plate sensitized with Taxol Derivative 5 (example 9a)",less than 6%
